These results are taken from PubChem BioAssay AID1347426 (Functional Genomics Laboratory (NCATS/FGL), 2020).

About 1,400 (4.5%) of roughly 31,000 sequences were called active.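 Rule for the calls: active = median seed-adjusted z-score above 1 or below -1; inactive = the rest.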 Some of the results follow.

A short description of this assay: Novel Modifiers of Survival Motor Neuron (SMN) Protein: Gene Identification via Genome-wide siRNA Screen.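 Note: luminescence tracks full-length SMN protein made from the SMN2 reporter.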 To be noted: HEK293T SMN2-luciferase reporter, siRNA knockdown, 72 h; actives lie on both sides. An outline of the steps:
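HEK293T cells stably carrying an SMN2 promoter/splicing cassette–luciferase reporter were reverse-transfected with 1 pmol siRNA per well (druggable-genome library, 3 siRNAs per gene) and grown 72 h at 37 °C. Luminescence, normalized to negative-control siRNA and log10-transformed, was scored as MAD.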
As for CCACGGUUCCAGGCUAUUATT against CASP7, the median seed-adjusted z-score is inactive: 0.213.

On to CACCUGCAGCCUUCACUUUTT against CCR1, for which the median seed-adjusted z-score was inactive: 0.

CACGUGAACUUGUACCGCUTT against ATP8A1: the median seed-adjusted z-score is inactive: 0.

On to CCGUGAAAAUGUGCGUAAATT against TAF1L, for which the median seed-adjusted z-score is inactive: 0.289.

Take GGUGGUCUCUUUAUAAUGATT against PHAX: the median seed-adjusted z-score is inactive: -0.0716.

Regarding GAUCAAAUGUGUGGCCUUUTT against LGALS1, the median seed-adjusted z-score was inactive: 0.033.

In the case of GAUCCAGACAGUUUACGAATT against MSH4, the median seed-adjusted z-score is inactive: 0.

For the sequence CCGUAGAUUUUCAUGAAUATT against PCDHGA8, the median seed-adjusted z-score was inactive: 0.00691.

Consider GGUCAUUGACUGUUCGUAUTT against CTSO, for which the median seed-adjusted z-score is inactive: 0.322.

For the sequence GUUAUACUGUGAGAUCUAATT against GPR160, the median seed-adjusted z-score was inactive: -0.278.

As to CCAAUGAAUUUACUCUUGATT against CYP19A1, the median seed-adjusted z-score was inactive: -0.321.

In the case of GCCUUUGAUCAGACAAAUATT against QKI, the median seed-adjusted z-score was inactive: -0.206.

In the case of CAUGUUGUAUAGUAUGCUATT against PUS3, the median seed-adjusted z-score is inactive: 0.584.

For the sequence ACGGUUCGCUGAAAAAGAATT against PITX3, the median seed-adjusted z-score was inactive: 0.

Regarding GAAGGGCUCCAAAUGGUAATT against PAICS, the median seed-adjusted z-score was inactive: -0.725.

Take GGAUCGAAAGCUUCGAUUUTT against ATP6V0A1: the median seed-adjusted z-score is inactive: 0.103.

Consider GCUUAGUUCUGAAAACCGATT against SPRR2G, for which the median seed-adjusted z-score was inactive: 0.358.

In the case of CAACGGCUUCUGUCAUUUATT against SUCLG1, the median seed-adjusted z-score is inactive: -0.63.

Consider CUGAUGCUCUGUAUCCCAATT against TNRC4, for which the median seed-adjusted z-score was inactive: 0.801.

Turning to CUGGGAGAGCUGCUAGAUATT against AMHR2, the median seed-adjusted z-score is inactive: 0.557.

As to CCUGGUUCGUCAUCAGAGATT against ZNF132, the median seed-adjusted z-score is inactive: -0.484.

For the sequence GUAUCUAACUUAUCUACUATT against HTR5A, the median seed-adjusted z-score is inactive: -0.0687.

Turning to CUUUAUGACUUAGAGUUAATT against BAAT, the median seed-adjusted z-score is inactive: 0.641.

With CGAGCUCUCUUCAAACGGATT against RPS6KA2, the median seed-adjusted z-score is inactive: 0.139.

As for GGCUCUAUCUGGAUCACAATT against LRRTM1, the median seed-adjusted z-score was inactive: -0.528.

With GGAUCGUCCUCAAAUCCAATT against SLC10A1, the median seed-adjusted z-score was inactive: -0.19.

For the sequence CGACCUUGUUGUCUCCAAATT against SYN3, the median seed-adjusted z-score was inactive: -0.729.

On to GACUGACCAUACUGAUAUUTT against NPY5R, for which the median seed-adjusted z-score is inactive: 0.213.

CCAGUAUGAGGUCGACUAUTT against KCNJ14: the median seed-adjusted z-score is inactive: -0.526.

In the case of CAGUGUAUCUUUUGCUGGATT against GPR81, the median seed-adjusted z-score was inactive: 0.0718.

For the sequence GACUCGCUAUGACAGUGGATT against DNAJC7, the median seed-adjusted z-score was inactive: 0.268.

In the case of GAAUCCCAGUGGUGAGACATT against ABHD4, the median seed-adjusted z-score is inactive: -0.054.

As to ACAACUAUGGGAAAACAUUTT against CHAT, the median seed-adjusted z-score was inactive: -0.109.

Take GUCUUAUGAUUACAAUGAATT against ZNF248: the median seed-adjusted z-score was inactive: -0.0486.

Regarding CGACUGCAUCAACCAGAUATT against EXTL1, the median seed-adjusted z-score was inactive: 0.

Consider GCAUUGCCGUUGAUCGGUATT against GPR65, for which the median seed-adjusted z-score is inactive: -0.766.

With CUCUGGUACUUGAGUAUAATT against B3GALT1, the median seed-adjusted z-score was inactive: -0.0555.

Regarding GAAACAGUGCUGAAGCCUUTT against RYBP, the median seed-adjusted z-score was inactive: 0.831.

Take GCCCUUCUAAGACCCACGATT against KLK12: the median seed-adjusted z-score is inactive: 0.243.

Turning to GUUGUGAAGUUAUCCGAGATT against PPIL4, the median seed-adjusted z-score is inactive: 0.00225.

GAGCAUUCAUUUACUCGAATT against HERC1: the median seed-adjusted z-score is inactive: 0.168.

For the sequence GGAGACGAUUGGGAAGAUATT against ZNF622, the median seed-adjusted z-score is inactive: -0.462.

Consider GAGUAUAUAAGGAAGUAAATT against ATP5F1, for which the median seed-adjusted z-score is inactive: -0.323.

Regarding GAACUUAAUGGAUGCACCATT against SPINK1, the median seed-adjusted z-score was inactive: 0.292.

As to AGAAGUUAAUGGACUGUUUTT against RBM38, the median seed-adjusted z-score was inactive: 0.0358.

Turning to GCUACAGGCUCGCAUCGAATT against EVPL, the median seed-adjusted z-score was inactive: -0.146.

With GGACAUGAGGAAUGAGUUATT against FOXR2, the median seed-adjusted z-score was inactive: 0.593.

In the case of AGUGGAUUGUAGACAUGGATT against UBE2W, the median seed-adjusted z-score was inactive: -0.655.

Regarding GGCUGAACGUGCUUGCAAATT against OGDH, the median seed-adjusted z-score was inactive: 0.253.

In the case of GAAGCAGACUAAACGAGCUTT against SYT13, the median seed-adjusted z-score is inactive: 0.275.

Consider GGAAGGUUCUGAAUAUAGATT against ARHGDIB, for which the median seed-adjusted z-score is inactive: -0.549.

On to GCCGUAAUGUUUGUAUAGATT against ADAMTS16, for which the median seed-adjusted z-score is inactive: -0.133.

As for CGCUUAAGCCUUCCAACAATT against POLR2A, the median seed-adjusted z-score was active: -3.81.

As to GUGUUUUUGUAGUUACCUATT against TSEN34, the median seed-adjusted z-score was inactive: 0.918.

As for AACUUAACCUUAUGGAUUUTT against LAMB3, the median seed-adjusted z-score was inactive: -0.0106.

Consider CCUUUGAGAUCGAGCGUGATT against AANAT, for which the median seed-adjusted z-score is inactive: -0.168.

As for GCUUAAAUACUUACACCAATT against CHST9, the median seed-adjusted z-score was inactive: 0.252.

Consider GGAUGCUGGUCUCUAAGGATT against DTX3, for which the median seed-adjusted z-score was inactive: 0.227.

With CCUGGAGACUAUUACUUGATT against EXDL2, the median seed-adjusted z-score was inactive: -0.0717.

In the case of GGAUGGUAGUGUCUGACUUTT against MGLL, the median seed-adjusted z-score was inactive: 0.288.

Turning to GUGUUUGCGGGAACGGUUATT against TFAP2E, the median seed-adjusted z-score is inactive: 0.243.

As to ACUUGUUCACAUACAGAAATT against FABP7, the median seed-adjusted z-score was inactive: 0.562.

As for CCACCGUCGAUGAUCGCAATT against CCND2, the median seed-adjusted z-score is inactive: -0.819.

In the case of GGACCGAGUGACUACUAUATT against CDKL1, the median seed-adjusted z-score is inactive: -0.28.

Turning to ACCUGGAUCUCUCCCACAATT against PODNL1, the median seed-adjusted z-score is inactive: -0.448.

As for GGAAAAGAAUGUAUAAACUTT against SPTLC1, the median seed-adjusted z-score was inactive: 0.0941.

In the case of CCCUAAUCGUCUUCUCUAATT against CPT1C, the median seed-adjusted z-score was inactive: -0.458.

Take GAAGAACACGUAUGAUGUUTT against DLG4: the median seed-adjusted z-score is inactive: -0.498.

With GGACCUCUCAAGUUACCCATT against KIRREL3, the median seed-adjusted z-score is inactive: -0.206.

Consider GAUUAUUGUGGACACCUAUTT against MAT1A, for which the median seed-adjusted z-score was inactive: 0.501.

As to GGGCUGUGAUCUUGUCGAATT against AGMAT, the median seed-adjusted z-score was inactive: -0.0269.

Regarding CUCUACCCGUGCUAUAUAATT against TIGD1, the median seed-adjusted z-score is inactive: 0.224.

For the sequence GGGAGCAUCUCAACAAGCATT against ZNF319, the median seed-adjusted z-score is inactive: 0.256.

In the case of GAGAAAAUCUAUAUCCGGATT against NR2C2, the median seed-adjusted z-score is inactive: -0.498.

CCGUACAGGCAGCAAUUAATT against DNA2: the median seed-adjusted z-score is inactive: 0.0284.

Regarding AGUGGAUAGCCUCAAGAAATT against SDPR, the median seed-adjusted z-score was inactive: -0.0738.

Regarding GGAACAAGCAAGUUGUAGATT against CACHD1, the median seed-adjusted z-score is inactive: 0.119.

As to GGCAUCAUGUACUACCUAATT against SLC6A9, the median seed-adjusted z-score was inactive: 0.241.

With CCUCGUUCAGAAUACAUCATT against TPP2, the median seed-adjusted z-score is inactive: -0.562.

Consider AGGCAGACCGAUAAAAAGATT against PTPN18, for which the median seed-adjusted z-score was inactive: -0.206.

As to CAACAUCUACAAUCUCUAUTT against CTSA, the median seed-adjusted z-score was inactive: 0.0897.

As to GGAGUAACCUGAAUCAUCUTT against MTCH1, the median seed-adjusted z-score is inactive: 0.

As for GUAUCAAGCACGAUAUAUATT against RIPK2, the median seed-adjusted z-score was inactive: 0.176.

For the sequence CCAUUGAAGCUUGAGAGAATT against ZNF286A, the median seed-adjusted z-score was inactive: 0.0368.

As for GAAUCAACAUGGUAGAAGATT against KARS, the median seed-adjusted z-score was inactive: -0.152.

Take GAAGGCCUCUGAUGACUAUTT against TSSK4: the median seed-adjusted z-score was inactive: -0.162.

Consider AGACAUAUAUCAUUGAUCATT against ITFG2, for which the median seed-adjusted z-score was inactive: 0.165.

With ACAUGAACACUGAGGUGGATT against FOXN4, the median seed-adjusted z-score was inactive: 0.15.

GUACCAUUGUGUGUGCUUATT against DLK2: the median seed-adjusted z-score was inactive: -0.695.

In the case of CCCUCAAAGCUAUAGCUCUTT against ESRRG, the median seed-adjusted z-score was inactive: -0.681.

CAACCACGAUCUGAAGUUUTT against FGL2: the median seed-adjusted z-score is inactive: 0.

Consider GCAUCGCAAGAGCUGCAAATT against DPYD, for which the median seed-adjusted z-score is inactive: -0.112.

As for GGAAGGAUUUGACCGAAAATT against PCSK2, the median seed-adjusted z-score was inactive: -0.704.

Consider GAAUUGGAAGAAGAUAUCATT against RHOBTB3, for which the median seed-adjusted z-score was inactive: 0.256.

For the sequence GGAUGUGAACGGGCACAUUTT against CDC42BPG, the median seed-adjusted z-score was inactive: 0.153.

Take GCUCAGUGGUUGUAGCAGATT against GABRA1: the median seed-adjusted z-score is inactive: -0.405.

In the case of GAGCGAGUCUACAAGUGUATT against REST, the median seed-adjusted z-score was inactive: 0.416.

Turning to GCAAAAGGCGAGUACAAGATT against SH3BP5, the median seed-adjusted z-score was inactive: -0.707.

Consider AGCCGGUGUUCAUCUCCAATT against SP8, for which the median seed-adjusted z-score is inactive: -0.215.

In the case of GGCCUACUGUGGAAUUGGATT against TTC3, the median seed-adjusted z-score is active: -1.17.

As for CCAAGGCUCUCACACUUAUTT against PGLYRP3, the median seed-adjusted z-score is inactive: -0.671.

As to CCACCCUUGUGGACAACCUTT against NPFFR1, the median seed-adjusted z-score was inactive: -0.613.

For the sequence AGGGAGGUGUUUAACGGCATT against HMOX1, the median seed-adjusted z-score was inactive: 0.45.

For GCAAAGCUGCUAAACCGUATT against POFUT1, the median seed-adjusted z-score is inactive: 0.

For CCUCGACCUGGUCACUUUATT against TRMU, the median seed-adjusted z-score is inactive: 0.0312.

As for GAUUCAACGAUGUUACGCATT against RG9MTD2, the median seed-adjusted z-score was inactive: -0.599.

As for GAAACAAACUUAUAGUGAUTT against WBP5, the median seed-adjusted z-score was inactive: 0.452.
